Experimental data reported in PubChem BioAssay AID186 (DTP/NCI, 2004).
The mice bore no tumour; each value counts animals alive of those treated. Counts of survivors are from the toxicity check (mostly the fifth day) where no day follows; animals may have died later. Schedule codes are those of the source, taken here to give the interval after Q, in days (D) or hours (H), and the number of doses after X.

Test system: B6D2F1 mice, nontumored toxicity test, survival
Experiment: NCI In Vivo Anticancer Drug Screen. Data for tumor model Nontumored Animals (Toxicity Test) in B6D2F1 (BDF1) mice
[1] = dose: 8.0 mg/kg/injection, schedule: Q04DX003 (ip), vehicle: saline
[2] = dose: 16.0 mg/kg/injection, schedule: Q04DX003 (ip), vehicle: saline
[3] = dose: 32.0 mg/kg/injection, schedule: Q04DX003 (ip), vehicle: saline

Q: Which survivor count (dose: 1.0 mg/kg/injection, schedule: Q03HX016 (ip), vehicle: saline) does the source give for `COc1cc2c[n+](C)c3c4cc5c(cc4ccc3c2cc1OC)OCO5` here?
A: 8 of 8

Q: What about the survivor count (dose: 1.0 mg/kg/injection, schedule: Q03HX024 (ip), vehicle: saline) of the same compound?
A: 8 of 8

Q: And the survivor count (dose: 2.0 mg/kg/injection, schedule: Q03HX016 (ip), vehicle: saline)?
A: 8 of 8

Q: And the survivor count (dose: 2.0 mg/kg/injection, schedule: Q03HX024 (ip), vehicle: saline)?
A: 8 of 8

Q: What about the survivor count (dose: 4.0 mg/kg/injection, schedule: Q03HX008 (ip), vehicle: saline) of the same compound?
A: 8 of 8

Q: What about the survivor count (dose: 4.0 mg/kg/injection, schedule: Q03HX016 (ip), vehicle: saline) of the same compound?
A: 8 of 8

Q: And the survivor count (dose: 4.0 mg/kg/injection, schedule: Q03HX024 (ip), vehicle: saline)?
A: 8 of 8

Q: What about the survivor count (dose: 6.25 mg/kg/injection, schedule: Q01DX009 (ip), vehicle: water) of the same compound?
A: 6 of 8

Q: And the survivor count (dose: 8.0 mg/kg/injection, schedule: Q01DX009 (ip), vehicle: saline)?
A: 8 of 8

Q: What about the survivor count (dose: 8.0 mg/kg/injection, schedule: Q03HX008 (ip), vehicle: saline) of the same compound?
A: 8 of 8

Q: What about the survivor count (dose: 8.0 mg/kg/injection, schedule: Q03HX016 (ip), vehicle: saline) of the same compound?
A: 8 of 8

Q: And the survivor count (dose: 8.0 mg/kg/injection, schedule: Q03HX024 (ip), vehicle: saline)?
A: 8 of 8

Q: And the survivor count [1]?
A: 8 of 8

Q: And the survivor count (dose: 8.0 mg/kg/injection, schedule: Q08DX002 (ip), vehicle: saline)?
A: 8 of 8

Q: And the survivor count (dose: 10.0 mg/kg/injection, schedule: Q01DX009 (ip), vehicle: water)?
A: 8 of 8

Q: And the survivor count (dose: 12.5 mg/kg/injection, schedule: Q01DX009 (ip), vehicle: water)?
A: 7 of 8

Q: And the survivor count (dose: 16.0 mg/kg/injection, schedule: Q01DX009 (ip), vehicle: saline)?
A: 8 of 8

Q: And the survivor count (dose: 16.0 mg/kg/injection, schedule: Q01DX009 (oral), vehicle: saline)?
A: 8 of 8

Q: And the survivor count (dose: 16.0 mg/kg/injection, schedule: Q03HX008 (ip), vehicle: saline)?
A: 6 of 8

Q: What about the survivor count (dose: 16.0 mg/kg/injection, schedule: Q03HX016 (ip), vehicle: saline) of the same compound?
A: 7 of 8

Q: What about the survivor count (dose: 16.0 mg/kg/injection, schedule: Q03HX024 (ip), vehicle: saline) of the same compound?
A: 8 of 8

Q: And the survivor count [2]?
A: 8 of 8

Q: And the survivor count (dose: 16.0 mg/kg/injection, schedule: Q08DX002 (ip), vehicle: saline)?
A: 8 of 8

Q: What about the survivor count (dose: 20.0 mg/kg/injection, schedule: Q01DX009 (ip), vehicle: water) of the same compound?
A: 8 of 8

Q: And the survivor count (dose: 25.0 mg/kg/injection, schedule: Q01DX009 (ip), vehicle: water)?
A: 6 of 8

Q: And the survivor count (dose: 32.0 mg/kg/injection, schedule: Q01DX001 (ip), vehicle: saline)?
A: 8 of 8

Q: And the survivor count (dose: 32.0 mg/kg/injection, schedule: Q01DX009 (ip), vehicle: saline)?
A: 8 of 8

Q: And the survivor count (dose: 32.0 mg/kg/injection, schedule: Q01DX009 (oral), vehicle: saline)?
A: 8 of 8

Q: What about the survivor count (dose: 32.0 mg/kg/injection, schedule: Q03HX008 (ip), vehicle: saline) of the same compound?
A: 3 of 8

Q: And the survivor count (dose: 32.0 mg/kg/injection, schedule: Q03HX024 (ip), vehicle: saline)?
A: 2 of 8

Q: And the survivor count [3]?
A: 8 of 8

Q: And the survivor count (dose: 32.0 mg/kg/injection, schedule: Q08DX002 (ip), vehicle: saline)?
A: 8 of 8

Q: What about the survivor count (dose: 40.0 mg/kg/injection, schedule: Q01DX009 (ip), vehicle: water) of the same compound?
A: 8 of 8

Q: What about the survivor count (dose: 50.0 mg/kg/injection, schedule: Q01DX009 (ip), vehicle: water) of the same compound?
A: 4 of 8

Q: What about the survivor count (dose: 64.0 mg/kg/injection, schedule: Q01DX001 (ip), vehicle: saline) of the same compound?
A: 8 of 8

Q: What about the survivor count (dose: 64.0 mg/kg/injection, schedule: Q01DX009 (ip), vehicle: saline) of the same compound?
A: 8 of 8

Q: And the survivor count (dose: 64.0 mg/kg/injection, schedule: Q01DX009 (oral), vehicle: saline)?
A: 8 of 8

Q: And the survivor count (dose: 64.0 mg/kg/injection, schedule: Q03HX008 (ip), vehicle: saline)?
A: 1 of 8

Q: And the survivor count (dose: 64.0 mg/kg/injection, schedule: Q04DX003 (ip), vehicle: saline)?
A: 8 of 8

Q: And the survivor count (dose: 64.0 mg/kg/injection, schedule: Q08DX002 (ip), vehicle: saline)?
A: 8 of 8

Q: And the survivor count (dose: 80.0 mg/kg/injection, schedule: Q01DX009 (ip), vehicle: water)?
A: 5 of 8

Q: And the survivor count (dose: 128.0 mg/kg/injection, schedule: Q01DX001 (ip), vehicle: saline)?
A: 8 of 8

Q: And the survivor count (dose: 128.0 mg/kg/injection, schedule: Q01DX009 (ip), vehicle: saline)?
A: 8 of 8

Q: What about the survivor count (dose: 128.0 mg/kg/injection, schedule: Q01DX009 (oral), vehicle: saline) of the same compound?
A: 8 of 8

Q: What about the survivor count (dose: 128.0 mg/kg/injection, schedule: Q04DX003 (ip), vehicle: saline) of the same compound?
A: 8 of 8

Q: And the survivor count (dose: 128.0 mg/kg/injection, schedule: Q08DX002 (ip), vehicle: saline)?
A: 8 of 8

Q: What about the survivor count (dose: 256.0 mg/kg/injection, schedule: Q01DX001 (ip), vehicle: saline) of the same compound?
A: 8 of 8

Q: And the survivor count (dose: 256.0 mg/kg/injection, schedule: Q01DX009 (oral), vehicle: saline)?
A: 8 of 8

Q: And the survivor count (dose: 256.0 mg/kg/injection, schedule: Q04DX003 (ip), vehicle: saline)?
A: 7 of 8

Q: And the survivor count (dose: 512.0 mg/kg/injection, schedule: Q01DX001 (ip), vehicle: saline)?
A: 8 of 8

Q: What about the survivor count (dose: 512.0 mg/kg/injection, schedule: Q01DX009 (oral), vehicle: saline) of the same compound?
A: 7 of 8

Q: Which survivor count (dose: 0.5 mg/kg/injection, schedule: Q04DX003 (ip), vehicle: saline) does the source give for `NC(=O)c1[nH]nc(C2OC(CO)C(O)C2O)c1O` (stereo not drawn) here?
A: 8 of 8

Q: What about the survivor count (dose: 1.0 mg/kg/injection, schedule: Q04DX003 (ip), vehicle: saline) of the same compound?
A: 8 of 8

Q: What about the survivor count (dose: 2.0 mg/kg/injection, schedule: Q04DX003 (ip), vehicle: saline) of the same compound?
A: 8 of 8

Q: What about the survivor count (dose: 4.0 mg/kg/injection, schedule: Q04DX003 (ip), vehicle: saline) of the same compound?
A: 8 of 8

Q: What about the survivor count [1] of the same compound?
A: 8 of 8

Q: What about the survivor count [2] of the same compound?
A: 8 of 8

Q: What about the survivor count [3] of the same compound?
A: 8 of 8
